Test results taken from article PMC11552376, “Specific binding between Arabidopsis thaliana phytochrome-interacting factor 3 (AtPIF3) bHLH and G-box originated prior to embryophyte emergence” (BMC Plant Biology, 2024).

Amino acid sequences for entries named in this document (tags omitted). A change or cut given only in a name is not applied to a line headed by its entry.
UniProt O80536: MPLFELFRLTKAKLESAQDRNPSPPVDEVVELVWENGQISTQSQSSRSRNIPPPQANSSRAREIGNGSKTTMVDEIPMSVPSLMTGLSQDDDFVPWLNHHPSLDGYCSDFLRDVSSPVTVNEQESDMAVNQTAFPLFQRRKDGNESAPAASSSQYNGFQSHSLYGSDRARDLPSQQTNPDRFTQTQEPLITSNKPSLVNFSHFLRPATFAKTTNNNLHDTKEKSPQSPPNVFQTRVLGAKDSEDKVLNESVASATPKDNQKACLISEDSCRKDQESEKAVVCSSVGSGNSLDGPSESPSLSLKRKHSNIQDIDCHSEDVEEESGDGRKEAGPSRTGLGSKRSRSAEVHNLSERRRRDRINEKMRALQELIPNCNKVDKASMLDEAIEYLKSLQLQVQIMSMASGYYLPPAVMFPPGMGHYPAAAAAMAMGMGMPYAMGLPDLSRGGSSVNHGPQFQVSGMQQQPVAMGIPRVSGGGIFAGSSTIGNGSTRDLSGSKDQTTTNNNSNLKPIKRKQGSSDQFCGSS

Columns and labels:
[1] = target: T1, AtPIF3-bHLH H348A (Arabidopsis thaliana) (UniProt O80536); experiment: EMSA; conditions: unbound DNA remains at DNA:protein 1:10; fEMSA: 30 mM HEPES, 500 mM NaCl, pH 7.4, on ice 30 min, 3 uM probe, 10% native gel in 0.5x TBE at 4 C; recombinant protein; protein details: C-terminal His6; label: 5' fluorescein; only the site is given
T1 sequence (looked up, limits assumed): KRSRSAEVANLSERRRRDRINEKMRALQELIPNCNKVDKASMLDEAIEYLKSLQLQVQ

[2] = target: T2, AtPIF3-bHLH R356A (Arabidopsis thaliana) (UniProt O80536); experiment: EMSA; conditions: unbound DNA remains at DNA:protein 1:10; fEMSA: 30 mM HEPES, 500 mM NaCl, pH 7.4, on ice 30 min, 3 uM probe, 10% native gel in 0.5x TBE at 4 C; recombinant protein; protein details: C-terminal His6; label: 5' fluorescein; only the site is given
T2 sequence (looked up, limits assumed): T1 sequence (looked up, limits assumed) with A9H, R17A

**Q.** Does “GCATTCACGTGAAGT (double strand) [pPIL1 G-box]” bind [1]?
**A.** Result: binds more weakly

**Q.** Does “GCATTCACGTGAAGT (double strand) [pPIL1 G-box]” bind [2]?
**A.** Result: binds more weakly

Residue numbers refer to the chain shown, from its start. For at least one entry, the source does not settle the construct or the ends of the probe. The comparison behind a weaker result is the experiment's own reference, which may not be listed here. Tags and fusion partners may be left off the protein sequences shown.
